Source: PubChem BioAssay (EPA / NIEHS)
Inconclusive means that the source gave no clear call. Such entries were picked first, then a sample of the others. Where the call is inconclusive, the potency comes from a doubtful curve fit. Active and inactive are the calls of the source. The calls were made as follows: active = hit-call score of the fitted dose curve at least 0.9, where 1 is the maximum; inconclusive = response in the unintended direction; inactive = score below 0.9.

Chains of the proteins cited; added tags and fusions are not shown. Lines headed by an entry give the natural chain unless they say otherwise; changes in a name come on top.
UniProt P10276, whole entry, looked up: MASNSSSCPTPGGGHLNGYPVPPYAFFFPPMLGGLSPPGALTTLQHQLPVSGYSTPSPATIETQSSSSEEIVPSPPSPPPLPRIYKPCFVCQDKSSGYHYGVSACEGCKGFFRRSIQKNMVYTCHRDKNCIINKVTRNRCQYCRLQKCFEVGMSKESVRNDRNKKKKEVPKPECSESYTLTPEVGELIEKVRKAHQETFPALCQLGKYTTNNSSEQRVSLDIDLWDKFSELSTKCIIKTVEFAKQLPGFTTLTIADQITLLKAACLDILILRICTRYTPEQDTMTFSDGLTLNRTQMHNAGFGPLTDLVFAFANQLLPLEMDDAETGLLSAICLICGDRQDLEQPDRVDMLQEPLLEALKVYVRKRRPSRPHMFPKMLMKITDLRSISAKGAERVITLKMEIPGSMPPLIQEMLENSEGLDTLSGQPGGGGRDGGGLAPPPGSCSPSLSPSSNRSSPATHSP
UniProt P37231: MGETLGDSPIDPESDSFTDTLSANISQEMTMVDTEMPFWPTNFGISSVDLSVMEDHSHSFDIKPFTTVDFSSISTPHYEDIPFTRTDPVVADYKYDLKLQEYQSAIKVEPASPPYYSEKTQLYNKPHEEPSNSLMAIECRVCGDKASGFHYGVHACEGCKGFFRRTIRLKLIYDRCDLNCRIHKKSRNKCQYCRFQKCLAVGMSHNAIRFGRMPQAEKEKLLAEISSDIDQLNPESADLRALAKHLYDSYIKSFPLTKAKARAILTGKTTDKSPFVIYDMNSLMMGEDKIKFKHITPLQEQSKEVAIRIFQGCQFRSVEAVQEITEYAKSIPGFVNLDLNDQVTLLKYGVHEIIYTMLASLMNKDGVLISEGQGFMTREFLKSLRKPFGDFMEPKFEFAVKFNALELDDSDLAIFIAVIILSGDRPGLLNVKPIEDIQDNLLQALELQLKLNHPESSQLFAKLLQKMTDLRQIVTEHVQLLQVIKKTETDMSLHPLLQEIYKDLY
UniProt O75469: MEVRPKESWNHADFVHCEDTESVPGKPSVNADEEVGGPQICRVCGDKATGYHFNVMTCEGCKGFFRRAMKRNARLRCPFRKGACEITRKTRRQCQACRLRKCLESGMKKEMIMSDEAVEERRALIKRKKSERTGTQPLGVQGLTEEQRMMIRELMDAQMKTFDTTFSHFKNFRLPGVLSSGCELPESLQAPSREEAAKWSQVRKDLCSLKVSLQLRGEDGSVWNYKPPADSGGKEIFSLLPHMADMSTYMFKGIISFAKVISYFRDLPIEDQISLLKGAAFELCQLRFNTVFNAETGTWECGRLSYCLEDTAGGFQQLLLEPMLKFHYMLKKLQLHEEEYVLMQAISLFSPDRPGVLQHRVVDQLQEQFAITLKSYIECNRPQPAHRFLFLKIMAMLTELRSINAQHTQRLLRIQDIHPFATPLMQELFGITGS
UniProt P13631, whole entry, looked up: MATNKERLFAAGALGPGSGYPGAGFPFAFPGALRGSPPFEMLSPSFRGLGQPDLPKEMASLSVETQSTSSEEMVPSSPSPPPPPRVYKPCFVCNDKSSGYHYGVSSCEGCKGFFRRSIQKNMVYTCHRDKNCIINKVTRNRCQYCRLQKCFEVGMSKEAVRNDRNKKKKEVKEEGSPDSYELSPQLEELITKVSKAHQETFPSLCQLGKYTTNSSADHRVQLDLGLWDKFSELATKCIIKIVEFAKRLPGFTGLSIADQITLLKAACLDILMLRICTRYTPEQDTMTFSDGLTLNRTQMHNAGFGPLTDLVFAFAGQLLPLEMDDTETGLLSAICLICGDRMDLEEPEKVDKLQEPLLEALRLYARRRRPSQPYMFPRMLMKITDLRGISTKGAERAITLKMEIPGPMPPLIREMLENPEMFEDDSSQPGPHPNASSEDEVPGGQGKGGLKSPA
UniProt Q92753: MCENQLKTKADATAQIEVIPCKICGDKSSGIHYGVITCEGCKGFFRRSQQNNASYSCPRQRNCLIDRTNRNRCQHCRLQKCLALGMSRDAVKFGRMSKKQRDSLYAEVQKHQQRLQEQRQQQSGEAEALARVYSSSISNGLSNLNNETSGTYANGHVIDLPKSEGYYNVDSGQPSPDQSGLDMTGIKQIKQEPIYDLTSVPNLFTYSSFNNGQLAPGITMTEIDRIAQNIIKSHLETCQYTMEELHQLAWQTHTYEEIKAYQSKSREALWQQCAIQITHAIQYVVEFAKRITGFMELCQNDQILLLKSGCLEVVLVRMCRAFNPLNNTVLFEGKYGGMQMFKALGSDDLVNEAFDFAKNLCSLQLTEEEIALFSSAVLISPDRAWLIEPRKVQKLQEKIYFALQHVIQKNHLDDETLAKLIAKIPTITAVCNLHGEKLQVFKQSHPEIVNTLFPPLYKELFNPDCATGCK
UniProt P51449: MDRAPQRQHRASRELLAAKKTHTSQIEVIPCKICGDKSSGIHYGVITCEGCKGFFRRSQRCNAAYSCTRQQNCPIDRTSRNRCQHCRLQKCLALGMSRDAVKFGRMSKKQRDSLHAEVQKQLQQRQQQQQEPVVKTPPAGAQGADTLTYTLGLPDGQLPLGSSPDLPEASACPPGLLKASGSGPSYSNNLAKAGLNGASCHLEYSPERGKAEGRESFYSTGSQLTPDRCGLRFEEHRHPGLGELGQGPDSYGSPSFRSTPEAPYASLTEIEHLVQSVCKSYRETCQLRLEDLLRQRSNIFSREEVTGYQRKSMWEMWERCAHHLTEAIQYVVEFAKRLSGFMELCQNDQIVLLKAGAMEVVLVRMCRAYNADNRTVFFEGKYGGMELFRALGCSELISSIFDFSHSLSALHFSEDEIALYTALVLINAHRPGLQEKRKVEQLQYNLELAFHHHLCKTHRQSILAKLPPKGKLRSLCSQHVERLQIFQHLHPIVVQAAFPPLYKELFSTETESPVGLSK
UniProt P19793: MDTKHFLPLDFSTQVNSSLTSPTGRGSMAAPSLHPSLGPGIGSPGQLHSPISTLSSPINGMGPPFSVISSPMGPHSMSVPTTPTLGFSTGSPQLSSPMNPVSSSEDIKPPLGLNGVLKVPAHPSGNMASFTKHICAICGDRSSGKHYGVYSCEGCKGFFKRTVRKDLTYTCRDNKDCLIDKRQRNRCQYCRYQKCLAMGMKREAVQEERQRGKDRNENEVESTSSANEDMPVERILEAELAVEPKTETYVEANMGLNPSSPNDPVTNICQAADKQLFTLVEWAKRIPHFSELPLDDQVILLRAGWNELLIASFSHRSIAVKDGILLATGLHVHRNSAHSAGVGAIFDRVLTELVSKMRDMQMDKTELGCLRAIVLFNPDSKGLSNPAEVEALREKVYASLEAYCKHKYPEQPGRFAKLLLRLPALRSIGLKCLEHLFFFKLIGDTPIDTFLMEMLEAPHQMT
UniProt P11473: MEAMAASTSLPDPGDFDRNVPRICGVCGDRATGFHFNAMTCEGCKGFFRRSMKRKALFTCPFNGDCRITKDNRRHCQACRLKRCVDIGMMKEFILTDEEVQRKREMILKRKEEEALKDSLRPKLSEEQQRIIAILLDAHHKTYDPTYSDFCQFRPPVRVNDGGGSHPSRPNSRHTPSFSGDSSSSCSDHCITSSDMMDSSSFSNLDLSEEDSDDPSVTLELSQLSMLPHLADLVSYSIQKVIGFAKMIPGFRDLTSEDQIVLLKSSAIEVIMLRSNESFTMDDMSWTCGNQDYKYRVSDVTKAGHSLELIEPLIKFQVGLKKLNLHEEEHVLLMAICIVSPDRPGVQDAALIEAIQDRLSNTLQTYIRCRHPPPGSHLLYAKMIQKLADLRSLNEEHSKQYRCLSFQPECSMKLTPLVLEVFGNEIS
UniProt P28702: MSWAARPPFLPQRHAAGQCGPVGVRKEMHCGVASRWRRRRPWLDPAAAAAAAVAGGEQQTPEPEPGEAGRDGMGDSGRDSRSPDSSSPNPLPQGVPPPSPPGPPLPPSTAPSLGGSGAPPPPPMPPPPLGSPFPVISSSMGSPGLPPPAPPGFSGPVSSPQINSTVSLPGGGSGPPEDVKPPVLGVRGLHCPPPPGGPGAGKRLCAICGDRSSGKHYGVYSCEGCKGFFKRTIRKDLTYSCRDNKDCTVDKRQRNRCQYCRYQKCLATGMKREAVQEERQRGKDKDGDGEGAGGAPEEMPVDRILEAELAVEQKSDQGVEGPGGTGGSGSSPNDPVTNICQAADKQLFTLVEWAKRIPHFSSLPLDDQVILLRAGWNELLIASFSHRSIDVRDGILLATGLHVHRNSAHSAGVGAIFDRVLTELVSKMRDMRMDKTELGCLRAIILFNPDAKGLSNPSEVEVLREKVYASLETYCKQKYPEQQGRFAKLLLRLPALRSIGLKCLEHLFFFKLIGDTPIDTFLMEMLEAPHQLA
UniProt P10827: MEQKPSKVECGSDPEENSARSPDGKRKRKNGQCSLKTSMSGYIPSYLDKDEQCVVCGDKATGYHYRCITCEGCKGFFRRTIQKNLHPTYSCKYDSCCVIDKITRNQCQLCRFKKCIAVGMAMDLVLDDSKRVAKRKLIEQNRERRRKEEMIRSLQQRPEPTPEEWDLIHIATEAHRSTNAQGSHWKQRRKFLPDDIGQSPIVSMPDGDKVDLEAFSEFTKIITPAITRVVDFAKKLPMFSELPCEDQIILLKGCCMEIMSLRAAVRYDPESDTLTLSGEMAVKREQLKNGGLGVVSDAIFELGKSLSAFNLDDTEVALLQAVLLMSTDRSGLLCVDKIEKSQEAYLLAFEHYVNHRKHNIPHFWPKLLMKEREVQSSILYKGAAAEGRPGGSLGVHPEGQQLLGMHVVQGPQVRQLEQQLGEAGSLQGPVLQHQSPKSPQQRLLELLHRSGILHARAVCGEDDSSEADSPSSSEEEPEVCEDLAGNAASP

Legend:
[1] = molecular target: Retinoic acid receptor alpha (Homo sapiens) (UniProt P10276); experiment: ATG_RARa_TRANS: Attagene TRANS-FACTORIAL HepG2 Assay for human Retinoic Acid Receptor alpha (RARa) (AID 2283005);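 as to AC50: potency for increased reporter signal meaning RARa activation over DMSO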
Summary of the method: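 Reporter transcripts, measured by RT-PCR with fluorescent labeling and capillary electrophoresis after 24 h dosing, reflect activity of an exogenous human RARa–GAL4 fusion in transiently transfected HepG2. Fitted for increase relative to DMSO.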

[2] = molecular target: Peroxisome proliferator-activated receptor gamma (Homo sapiens) (UniProt P37231); experiment: ATG_PPARg_TRANS: Attagene TRANS-FACTORIAL HepG2 Assay for human Peroxisome Proliferator-activated Receptor-gamma (PPARg) (AID 2283007)
Summary of the method: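 Human hepatoma HepG2, transient MRTU transfection, 24 h treatment. mRNA reporter signal by RT-PCR plus capillary electrophoresis, fluorescence detection; fitted for increase over DMSO negative control.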

[3] = molecular target: Nuclear receptor subfamily 1 group I member 2 (Homo sapiens) (UniProt O75469); experiment: ATG_PXR_TRANS: Attagene TRANS-FACTORIAL HepG2 Assay for human Pregnane X Receptor (PXR) (AID 2283008)
Summary of the method: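 Trans-factorial format: exogenous NR-Gal4 fusion activity, not endogenous factor, in transfected human HepG2 liver cells. After 24 h dosing, RNA isolated, reverse-transcribed, amplified and resolved by capillary electrophoresis; induction scored versus DMSO.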

[4] = molecular target: human Retinoic Acid Receptor gamma (RARg), RARG (gene 5916) (UniProt P13631); experiment: ATG_RARg_TRANS: Attagene TRANS-FACTORIAL HepG2 Assay for human Retinoic Acid Receptor gamma (RARg) (AID 2283009);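 as to AC50: AC50 is for reporter induction above DMSO meaning RARg activation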
Summary of the method: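 Transactivation of exogenous RARg-Gal4 fusion measured as reporter transcript induction after 24 h in transfected HepG2 cells. RNA reverse-transcribed, amplified, fluorescently labeled and resolved by capillary electrophoresis; increase relative to DMSO.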

[5] = molecular target: human RAR-related Orphan Receptor beta (RORb), RORB (gene 6096) (UniProt Q92753); experiment: ATG_RORb_TRANS: Attagene TRANS-FACTORIAL HepG2 Assay for human RAR-related Orphan Receptor beta (RORb) (AID 2283010);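 as to AC50: potency for increased reporter mRNA meaning activation of RORb-Gal4 chimera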
Summary of the method: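 Read-out is reporter mRNA induction, quantified by RT-PCR with fluorescent capillary electrophoresis, 24 h post-dose in transiently transfected HepG2 expressing exogenous NR-Gal4 chimera. Activity fitted upward versus DMSO.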

[6] = molecular target: human RAR-related Orphan Receptor gamma (RORg), RORC (gene 6097) (UniProt P51449); experiment: ATG_RORg_TRANS: Attagene TRANS-FACTORIAL HepG2 Assay for human RAR-related Orphan Receptor gamma (RORg) (AID 2283011);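 as to AC50: potency for induction of reporter transcripts above DMSO so activators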
Summary of the method: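 Chimeric RORg-Gal4 transactivation in transfected HepG2; 24 h exposure; RT-PCR/capillary electrophoresis readout of reporter mRNA, DMSO baseline.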

[7] = molecular target: Retinoic acid receptor RXR-alpha (Homo sapiens) (UniProt P19793); experiment: ATG_RXRa_TRANS: Attagene TRANS-FACTORIAL HepG2 Assay for human Retinoid X Receptor alpha (RXRa) (AID 2283012)
Summary of the method: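 TRANS format reporting activity of exogenous RXRa-Gal4 chimera in transiently transfected HepG2, 24 h exposure. Reporter transcripts quantified by RT-PCR with capillary electrophoresis, with gain of signal scored relative to DMSO.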

[8] = molecular target: human Vitamin D Receptor (VDR), VDR (gene 7421) (UniProt P11473); experiment: ATG_VDR_TRANS: Attagene TRANS-FACTORIAL HepG2 Assay for human Vitamin D Receptor (VDR) (AID 2283022)
Summary of the method: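 Multiplexed TRANS reporter in HepG2; 24 h treatment; reporter mRNA by RT-PCR plus capillary electrophoresis; upregulation scored relative to DMSO.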

[9] = molecular target: human Retinoid X Receptor beta (RXRb), RXRB (gene 6257) (UniProt P28702); experiment: ATG_RXRb_TRANS: Attagene TRANS-FACTORIAL HepG2 Assay for human Retinoid X Receptor beta (RXRb) (AID 2283013)
Summary of the method: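 Readout is reporter transcript induction after 24 h dosing. It is measured by RT-PCR of total RNA followed by fluorescent capillary electrophoresis. HepG2 liver cells carry transfected multiple reporter units driven by an exogenous RXRb-Gal4 fusion; activity is relative to DMSO.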

[10] = molecular target: human Thyroid Receptor alpha (THRa1), THRA (gene 7067) (UniProt P10827); experiment: ATG_THRa1_TRANS: Attagene TRANS-FACTORIAL HepG2 Assay for human Thyroid Receptor alpha (THRa1) (AID 2283014)
Summary of the method: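 Measured here is mRNA from a GAL4-UAS reporter in transfected HepG2 cells carrying a Gal4-fused receptor, 24 h post-dose. DMSO served as negative control and baseline.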

For `CCC(CC)C(=O)O`, the AC50 [1] was inconclusive: 100 µM, the AC50 [2] was inconclusive: 2.26 µM and the AC50 [3] was inconclusive: 100 µM. For the same compound, the AC50 [4] was inconclusive: 174 µM, the outcome [5] was “inactive” and the AC50 [6] was inconclusive: 100 µM. For the same compound, the outcome [7] was “inactive”, the AC50 [9] was inconclusive: 100 µM and the AC50 [8] was inconclusive: 100 µM.

In the case of `CCO[Si](CCCNC(N)=O)(OCC)OCC`, the outcome [1] is reported as “inactive”, the AC50 [2] is reported as inconclusive: 4.27 µM and the AC50 [3] is reported as inconclusive: 3.78 µM. For the same compound, the outcome [4] was “inactive”, the AC50 [5] was inconclusive: 173 µM and the outcome [6] was “inactive”. For the same compound, the AC50 [10] was inconclusive: 100 µM and the outcome [8] was “inactive”.

`Nc1ccn([C@@H]2O[C@H](CO)[C@@H](O)C2O)c(=O)n1` (stereo not given in full) was tested, and the AC50 [1] was inconclusive: 174 µM, the AC50 [2] was inconclusive: 5.39 µM and the AC50 [3] was inconclusive: 100 µM. For the same compound, the AC50 [4] was inconclusive: 100 µM, the AC50 [5] was inconclusive: 156 µM and the outcome [6] was “inactive”. The AC50 [10] was inconclusive: 8.81 µM and the AC50 [8] was inconclusive: 100 µM.

With `O=C(O)c1cccc(C(=O)O)n1` the AC50 [1] was inconclusive: 100 µM, the AC50 [2] was inconclusive: 100 µM and the AC50 [3] was inconclusive: 1.25 µM. The AC50 [4] was inconclusive: 100 µM, the AC50 [5] was inconclusive: 100 µM and the AC50 [6] was inconclusive: 19.8 µM. The outcome [7] was “inactive”, the AC50 [10] was inconclusive: 1.44 µM and the AC50 [8] was inconclusive: 100 µM.

`OC1CCCC1` was tested, and the outcome [1] was “inactive”, the AC50 [2] was inconclusive: 100 µM and the AC50 [3] was inconclusive: 59.9 µM. The AC50 [4] was inconclusive: 100 µM, the outcome [5] was “inactive” and the outcome [6] was “inactive”. The AC50 [7] was inconclusive: 100 µM, the AC50 [9] was inconclusive: 100 µM and the outcome [8] was “inactive”.

`O=[N+]([O-])c1cccc(Cl)c1` was tested, and the AC50 [1] was inconclusive: 26.9 µM, the AC50 [2] was inconclusive: 100 µM and the AC50 [3] was inconclusive: 100 µM. For the same compound, the outcome [4] was “inactive”, the AC50 [5] was inconclusive: 163 µM and the AC50 [6] was inconclusive: 100 µM. For the same compound, the AC50 [7] was inconclusive: 26.3 µM, the AC50 [9] was inconclusive: 0.0814 µM and the AC50 [10] was inconclusive: 171 µM.

With `Clc1ccccc1C(c1ccccc1)(c1ccccc1)n1ccnc1` the AC50 [1] was inconclusive: 20.1 µM, the AC50 [2] was inconclusive: 11.1 µM and the AC50 [3] was active: 0.24 µM. For the same compound, the AC50 [4] was inconclusive: 11.1 µM, the AC50 [5] was inconclusive: 3.09 µM and the AC50 [6] was inconclusive: 3.6 µM. For the same compound, the AC50 [9] was inconclusive: 11.1 µM and the AC50 [10] was inconclusive: 11.1 µM.

With `OCCCCl` the outcome [1] was “inactive”, the AC50 [2] was inconclusive: 100 µM and the outcome [3] was “inactive”. For the same compound, the AC50 [4] was inconclusive: 100 µM, the AC50 [5] was inconclusive: 100 µM and the AC50 [6] was inconclusive: 100 µM. For the same compound, the outcome [9] was “inactive” and the outcome [10] was “inactive”.
